For experiment [1], the target named is T1, YbbP (E. coli, UniProt P77504 1-804).
T1 construct: YbbP, transmembrane component (10 transmembrane helices, two periplasmic domains) of the YbbAP Type VII ABC transporter, Escherichia coli; source: size exclusion chromatography for structure determination), in 0.01% LMNG
T1 sequence: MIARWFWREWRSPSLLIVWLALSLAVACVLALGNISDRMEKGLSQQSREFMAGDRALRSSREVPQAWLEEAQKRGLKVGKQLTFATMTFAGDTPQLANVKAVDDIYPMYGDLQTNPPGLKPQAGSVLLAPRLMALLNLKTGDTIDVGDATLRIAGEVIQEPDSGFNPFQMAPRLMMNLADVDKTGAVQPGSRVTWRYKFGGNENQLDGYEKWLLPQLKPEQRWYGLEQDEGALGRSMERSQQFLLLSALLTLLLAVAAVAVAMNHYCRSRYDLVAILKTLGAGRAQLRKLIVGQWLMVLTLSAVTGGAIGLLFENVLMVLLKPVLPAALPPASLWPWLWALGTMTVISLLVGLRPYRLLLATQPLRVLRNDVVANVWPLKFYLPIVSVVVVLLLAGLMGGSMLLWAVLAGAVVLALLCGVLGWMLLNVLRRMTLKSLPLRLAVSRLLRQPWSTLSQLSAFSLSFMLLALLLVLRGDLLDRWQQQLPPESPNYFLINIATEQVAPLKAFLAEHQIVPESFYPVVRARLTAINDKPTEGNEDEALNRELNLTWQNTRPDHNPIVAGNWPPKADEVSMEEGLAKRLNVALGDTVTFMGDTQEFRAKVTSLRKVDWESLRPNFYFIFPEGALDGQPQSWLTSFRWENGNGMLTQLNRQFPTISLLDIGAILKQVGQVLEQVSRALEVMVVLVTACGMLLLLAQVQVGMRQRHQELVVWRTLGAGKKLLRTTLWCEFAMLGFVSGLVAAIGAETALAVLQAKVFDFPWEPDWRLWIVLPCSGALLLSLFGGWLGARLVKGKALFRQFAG
Description: co-purification (Ni-affinity chromatography, SDS-PAGE); His-tag on YbbA; YbbA, YbbP and TesA co-expressed in E. coli C43(DE3); Ni-IMAC in detergent; also with ATP or an ATP analogue added.

Experiment [2] has as its target T2, YbbAP ABC transporter (E. coli) (UniProt P0A9T8+P77504).
T2 sequence 1: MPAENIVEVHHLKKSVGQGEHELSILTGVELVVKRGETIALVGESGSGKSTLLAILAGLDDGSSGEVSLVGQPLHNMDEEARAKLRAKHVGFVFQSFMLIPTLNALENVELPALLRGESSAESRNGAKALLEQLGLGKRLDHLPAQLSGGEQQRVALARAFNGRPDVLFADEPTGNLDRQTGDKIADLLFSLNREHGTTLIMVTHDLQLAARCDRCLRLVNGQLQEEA
T2 sequence 2: T1 sequence
Described as above.

Experiment [3] concerns the target T2, YbbAP ABC transporter (E. coli). Put plainly: cryo-EM structure; YbbAP-TesA(Ser36Ala) complex with AMP-PNP, co-expressed and co-purified (Ni-affinity, SEC), 0.01% LMNG; 4.6 Å; both purified.
Another experiment addresses T3, YbbA (E. coli) (UniProt P0A9T8).
T3 sequence: T2 sequence 1
Put plainly: co-purification (Ni-affinity chromatography, SDS-PAGE); His-tag on YbbA; YbbA, YbbP and TesA co-expressed in E. coli C43(DE3); Ni-IMAC in detergent; also with ATP or an ATP analogue added.

Experiment [4] deals with T1, YbbP. Description: cryo-EM structure; YbbAP with AMP-PNP, co-expressed and co-purified (Ni-affinity, SEC), 0.01% LMNG; 3.7 Å; both purified.
The target in experiment [5] is T1, YbbP. Description: cryo-EM structure; nucleotide-free (apo) YbbAP, co-expressed and co-purified (Ni-affinity, SEC), 0.01% LMNG; 4.0 Å; both purified.

The source of these data is publication PMC12646458, “Structural characterization of the YbbAP-TesA ABC transporter identifies it as a lipid hydrolase complex that extracts hydrophobic compounds from the bacterial inner membrane” (PLOS Biology, 2025).

Where a chain is given by its changes, count along the chain named. Results are given in words; binding and its absence hold for the method and conditions named. Some results given as binding are weak or reduced against the parent protein; the word gives no strength.

B1: TesA (enzyme, UniProt P0ADA1 27-208)
chain: ADTLLILGDSLSAGYRMSASAAWPALLNDKWQSKTSVVNASISGDTSQQGLARLPALLKQHQPRWVLVELGGNDGLRGFQPQQTEQTLRQILQDVKAANAEPLLMQIRLPANYGRRYNEAFSAIYPKLAKEFDVPLLPFFMEEVYLKPQWMQDDGIHPNRDAQPFIADWMAKQLQPLVNHDS
Turning to B1, the binding result (with YbbP [1]; in experiment [2]) was “binds” in each case.

B2: TesA Ser36Ala (enzyme, E. coli, UniProt P0ADA1 27-208, looked up)
chain: B1 chain with S10A
notes: TesA, periplasmic multifunctional esterase/thioesterase/lysophospholipase, Escherichia coli, with the catalytic site mutation Ser36Ala; printed residue numbers fit the precursor with its signal peptide; also called TesA catalytic site mutation (Ser36Ala); source: size exclusion chromatography for structure determination), in 0.01% LMNG
Turning to B2, the binding result in experiment [3] and in experiment [2] was “binds” throughout.

B3: YbbP (protein, UniProt P77504 1-804)
chain: T1 sequence
Consider B3, for which, in the experiment with YbbA (E. coli), the binding result is “binds”.

B4: YbbA (natural protein, E. coli)
chain: T2 sequence 1
notes: also called ABC domain; source: size exclusion chromatography for structure determination), in 0.01% LMNG
On to B4, for which the binding entry with YbbP [4] and with YbbP [5] was “binds” each time.
